Data reported in PubChem BioAssay AID310 (DTP/NCI, 2004).
The list does not hold the whole screen: it is rich in T/C values a quarter to a half above the control, in often repeated tests (any T/C) and in doses without a T/C. Further doses and runs are listed elsewhere. T/C: endpoint of the treated group in % of that of the vehicle group. Schedules are NCI's codes, taken here to give the interval after Q, in days (D) or hours (H), and the number of doses after X. Some T/C values are followed by the survivors on the day toxicity was checked, most often the fifth; without a count, all were alive then. Some doses were run more than once; the values are given in rising order. Some doses have a count of surviving animals in place of a T/C: the source files T/C as zero there, which appears to mark a toxic dose or a test without result, not a measured value. Counts of survivors are from the toxicity check (mostly the fifth day) where no day follows; animals may have died later.

Tested on: C3AKF1 mice, osteogenic sarcoma HE10734 s.c., tumor weight T/C
Experiment: NCI In Vivo Anticancer Drug Screen. Data for tumor model Osteogenic Sarcoma HE 10734 (subcutaneous) in C3AKF1 (CHKRF1) mice
Details: T/C endpoint: mean tumor weight, schedule: Q01DX010 (ip), higher T/C = larger tumour; for T/C: evaluated on day 20
Protocol: The antitumor activity of compounds was measured in mice bearing transplantable tumors. Survival or tumor size were measured and the results are expressed as the measurement made in the treated group (T) divided by the measurement made in the vehicle treated control group (C). The tumor model used in this assay is Osteogenic Sarcoma HE 10734 (subcutaneous) in C3AKF1 (CHKRF1) mice

[1] = dose: 100.0 mg/kg/injection, vehicle: saline
[2] = dose: 200.0 mg/kg/injection, vehicle: saline

NC(=O)c1ccc(NC(=O)CCC(=O)Nc2ccc(C(N)=O)cn2)nc1
T/C (dose: 1.25 mg/kg/injection, vehicle: carboxymethylcellulose (CMC)): 26 [4 of 6 alive], 50, 88, 99 % of control [5 of 6 alive]
survivor count (dose: 2.5 mg/kg/injection, vehicle: carboxymethylcellulose (CMC)): 0 of 6
survivor count (dose: 5.0 mg/kg/injection, vehicle: carboxymethylcellulose (CMC)): 0 of 6 and 1 of 6
survivor count (dose: 10.0 mg/kg/injection, vehicle: carboxymethylcellulose (CMC)): 0 of 6

CCc1c(CC(=O)O)c2cc(C)ccc2n1Cc1ccc(Cl)cc1
T/C (dose: 25.0 mg/kg/injection, vehicle: saline): 141 % of control [6 of 7 alive]
survivor count [1]: 0 of 7
survivor count [2]: 0 of 7

CSc1ncnc2c1ncn2C1CCCO1 (stereo unspecified)
survivor count (dose: 80.0 mg/kg/injection, vehicle: saline): 3 of 6

Nc1nc(SCc2ccccc2Cl)c2[nH]cnc2n1
survivor count (dose: 70.0 mg/kg/injection, vehicle: saline): 3 of 6
survivor count (dose: 165.0 mg/kg/injection, vehicle: saline): 1 of 6 and 4 of 7
survivor count (dose: 245.0 mg/kg/injection, vehicle: saline): 0 of 7
survivor count (dose: 370.0 mg/kg/injection, vehicle: saline): 0 of 7

CS(=O)(=O)OC[C@@H](O)[C@@H](O)COS(C)(=O)=O
T/C (dose: 62.5 mg/kg/injection, vehicle: carboxymethylcellulose (CMC)): 125 % of control

CCC[CH2][Sn]([CH2]CCC)([CH2]CCC)[O]C(=O)CC[S][Sn]([CH2]CCC)([CH2]CCC)[CH2]CCC
T/C (dose: 3.0 mg/kg/injection, vehicle: saline): 125 % of control
T/C (dose: 6.0 mg/kg/injection, vehicle: saline): 133 % of control [5 of 6 alive]
survivor count (dose: 48.0 mg/kg/injection, vehicle: saline): 2 of 6

Nc1nc(N)c(N=O)c(Nc2ccc(Br)cc2)n1
survivor count (dose: 395.0 mg/kg/injection, vehicle: saline): 0 of 7
survivor count (dose: 580.0 mg/kg/injection, vehicle: saline): 0 of 7

O=P(c1ccccc1)(N1CC1)N1CC1
survivor count (dose: 50.0 mg/kg/injection, vehicle: saline): 0 of 7
survivor count [1]: 0 of 7
survivor count [2]: 0 of 7

CCN(CC)CCN1C(=O)c2cccc3cccc(c23)C1=O
survivor count (dose: 200.0 mg/kg/injection, vehicle: carboxymethylcellulose (CMC)): 0 of 6

CCCCSc1nc(N)nc2c1ncn2CC(C)CC (stereo unspecified)
survivor count (dose: 400.0 mg/kg/injection, vehicle: saline): 4 of 7
survivor count (dose: 800.0 mg/kg/injection, vehicle: saline): 0 of 7

CCCCn1cnc2c(SC)nc(N)nc21
T/C (dose: 60.0 mg/kg/injection, vehicle: carboxymethylcellulose (CMC)): 125 % of control
survivor count (dose: 230.0 mg/kg/injection, vehicle: carboxymethylcellulose (CMC)): 3 of 6

O=S1(=O)CCCO1
T/C (dose: 20.0 mg/kg/injection, vehicle: carboxymethylcellulose (CMC)): 149 % of control
survivor count (dose: 160.0 mg/kg/injection, vehicle: carboxymethylcellulose (CMC)): 0 of 6

S=c1nc[nH]c2c1ncn2C1CCCO1 (stereo unspecified)
survivor count (dose: 150.0 mg/kg/injection, vehicle: saline): 0 of 7
survivor count (dose: 225.0 mg/kg/injection, vehicle: saline): 0 of 7
survivor count (dose: 335.0 mg/kg/injection, vehicle: saline): 0 of 7
